This is an account of results in PubChem BioAssay AID1487 (National Center for Advancing Translational Sciences (NCATS), 2009).

For orientation: AC50 means the midpoint of the concentration-response curve, whichever way the signal moves.

This is one part of the list. These are further read-outs of the screen, such as a control signal, another cell line or another target. No call is given for them. Most of these compounds were active or inconclusive in the main read-out, so they are no random draw. Words in brackets tell the shape of the fitted curve; partial curves, single points and poor fits give uncertain potencies.

A short description of the assay: qHTS Assay for Modulators of Lamin A Splicing. Conditions: HeLa LMNA splicing GFP/RFP minigene ratio, 48 h. In a few lines:
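S3 HeLa cells stably expressing lamin A-EGFP splicing minigene plus DsRed2, 600 cells/well, 48 h compound exposure at 37C. Laser-scanning cytometry; analysed as GFP (500-530 nm)/RFP (575-640 nm) total intensity ratio; 0.5% DMSO vehicle.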
In general terms: qHTS replaces the single test concentration by a dilution series.

Setting [1] is: measured here: GFP splicing reporter channel.
[2] abbreviates: measured here: RFP viability control channel.

As for `C=CCN1C(=O)C(CC(=O)Nc2ccccc2)S/C1=N/c1nccs1` (configuration not stated), the concentration at half-maximal activity (AC50) by setting is: under setting [1], 1.41 µM [rising, full curve]; under setting [2], 2.51 µM [rising, full curve, poor fit].

Take `N/C(=N\OC(=O)CCCOc1ccccc1)c1ccncc1`: the AC50 under setting [2] is 22.4 µM [rising, single point].

As for `COc1cc(OC)cc(C(=O)Nc2cccc(-c3cn4ccsc4n3)c2)c1`, the AC50 under setting [2] is 6.31 µM [falling, partial curve, poor fit].

In the case of `CNC(=S)N(Cc1ccc2c(c1)OCO2)C1CC(=O)N(c2ccccc2)C1=O` (configuration not stated), the AC50 under setting [2] is 31.6 µM [rising, single point].

Take `N#Cc1cc2c([nH]c1=O)CCCC2`: the AC50 under setting [1] was 0.0224 µM [falling, full curve, poor fit].

On to `Cc1ccccc1Nc1scc(-c2ccc(Cl)cc2)[n+]1-c1ccccc1C`, for which the AC50 under setting [2] was 1.78 µM [rising, partial curve, poor fit].

`COc1ccc(CCN2C(=S)N(C)C(=O)C2CC(=O)Nc2ccc(F)cc2)cc1` (configuration not stated): the half-maximal activity concentration (AC50) under setting [1] was 35.5 µM [rising, single point].

Take `Cc1cccc(C(=O)NCCNc2nc3cc(C)c(C)cc3cc2C)c1`: the AC50 under setting [2] is 25.1 µM [falling, single point].

In the case of `CCOC(=O)C1=C(C)Nc2ccccc2N=C1NC(=O)Cc1ccc(Cl)c(Cl)c1`, the AC50 under setting [2] is 12.6 µM [rising, single point].

With `CCOc1cc(C#N)c(NC(=O)c2ccco2)cc1OCC`, the AC50 under setting [2] is 0.316 µM [falling, partial curve, poor fit].

As to `Cc1cccc(Nc2nc(N3CCCCC3)nc(N3CCCCC3)n2)c1`, the concentration at half-maximal activity (AC50) under setting [2] was 17.8 µM [rising, single point].

`COc1ccccc1-c1c(C)nn2c(N3CCN(c4ccc(F)cc4)CC3)cc(C)nc12`: under setting [1], the AC50 is 0.794 µM [falling, full curve, poor fit].

With `COc1cc2cc(CN(Cc3cccs3)C(=S)Nc3ccccc3)c(=O)[nH]c2cc1OC`, the concentration at half-maximal activity (AC50) under setting [2] is 14.1 µM [rising, partial curve].

Turning to `COc1ccc(N2CCN(C(=S)NCc3ccccc3)CC2)cc1`, the AC50 under setting [1] was 0.794 µM [rising, full curve, poor fit].

On to `CC(=O)Nc1ccc2nc(SCCOc3ccccc3Cl)sc2c1`, for which the half-maximal activity concentration (AC50) under setting [1] was 35.5 µM [falling, partial curve, poor fit] and the AC50 under setting [2] was 35.5 µM [falling, partial curve, poor fit].

Take `Cc1ccc(S(=O)(=O)NCC(=O)N2CCN(c3ccccc3F)CC2)cc1`: the concentration at half-maximal activity (AC50) under setting [2] was 15.8 µM [rising, single point].

Take `COc1ccccc1N1CCN(C(=O)CCCn2nc(C)c([N+](=O)[O-])c2C)CC1`: the concentration at half-maximal activity (AC50) under setting [1] is 35.5 µM [falling, partial curve, poor fit].

For `O=C(c1ccc(-c2ccccc2)cc1)N1CCN(C(=O)c2ccco2)CC1`, the half-maximal activity concentration (AC50) is 8.91 µM [rising, partial curve] under setting [1] and 8.91 µM [rising, partial curve] under setting [2].

Turning to `COc1cccc(C2=NN(C(=O)c3cccs3)C(O)(C(F)(F)F)C2)c1` (configuration not stated), the AC50 under setting [1] is 35.5 µM [rising, single point].

For the compound `C[C@]12CCC(=O)C=C1CCC1C2C(=O)C[C@]2(C)C1CC[C@]2(O)C(=O)CO` (some centres not stated), the half-maximal activity concentration (AC50) under setting [1] was 0.000891 µM [falling, full curve, poor fit].

Take `CCc1nnc2c3ccccc3nc(N3CCN(c4cc(Cl)ccc4C)CC3)n12`: the concentration at half-maximal activity (AC50) under setting [1] was 0.00316 µM [falling, full curve, poor fit].

On to `CCCc1cc(-n2ccnc2)n2c(nc3ccccc32)c1C#N`, for which the AC50 under setting [2] was 35.5 µM [rising, single point].

As for `Cc1nn(-c2ccccc2)c(C)c1/C=N/NC(=O)CSc1nnc(SCc2cccc3ccccc23)s1`, the AC50 is 10 µM [rising, partial curve, poor fit] under setting [1] and 12.6 µM [rising, partial curve] under setting [2].

Regarding `Cc1ccc(Cn2c(CO)cnc2SCC(=O)Nc2cccc(F)c2)cc1`, the half-maximal activity concentration (AC50) under setting [1] was 0.501 µM [rising, full curve].

Regarding `CCn1c(COc2ccccc2)nnc1SCC(=O)Nc1cc(C)ccc1OC`, the AC50 under setting [2] is 12.6 µM [rising, single point].

`O=S(=O)(Nc1cccc(-c2cn3cccnc3n2)c1)c1ccc(F)cc1`: the half-maximal activity concentration (AC50) by setting is: under setting [1], 0.794 µM [rising, full curve, poor fit]; under setting [2], 0.355 µM [rising, full curve].

Regarding `O=C(Cn1c(-c2ccccc2)c[n+]2ccsc12)c1ccc(Br)cc1`, the AC50 under setting [2] was 10 µM [rising, partial curve, poor fit].

With `NC(Cc1ccccc1)C(O)(c1ccccc1)c1ccccc1` (configuration not stated), under setting [2], the AC50 was 10 µM [falling, partial curve].

Consider `COc1cc(NC(=O)c2ccc(Cl)cc2Cl)ccc1-c1cc2ccccc2oc1=O`, for which the concentration at half-maximal activity (AC50) reads like this: under setting [1], 17.8 µM [falling, partial curve, poor fit]; under setting [2], 8.91 µM [falling, partial curve].

In the case of `COc1ccccc1-c1nccc(Nc2ccc(F)cc2)n1`, the AC50 under setting [1] was 6.31 µM [falling, single point].

Take `N#C/C(=C\c1ccc(F)cc1F)S(=O)(=O)c1ccccn1`: under setting [2], the AC50 is 0.0126 µM [falling, full curve, poor fit].

As to `CC(C)Nc1nnc(SCC(=O)Nc2ccc3c(c2)C(=O)c2ccccc2C3=O)s1`, the AC50 reads like this: under setting [1], 31.6 µM [rising, single point]; under setting [2], 35.5 µM [rising, single point].

As for `Cc1ccc(C(C)C)cc1OCCCCN1CCCC1`, the concentration at half-maximal activity (AC50) was 14.1 µM [rising, partial curve] under setting [1] and 1 µM [rising, full curve, poor fit] under setting [2].

Regarding `COc1cccc(NC(=S)N(CCCN2CCCC2)Cc2ccco2)c1`, the concentration at half-maximal activity (AC50) by setting is: under setting [1], 0.501 µM [rising, full curve, poor fit]; under setting [2], 1.12 µM [rising, partial curve].

For `CC(C)(C)c1ccc(C(=O)Nc2nnc3n2CCS3)cc1`, the AC50 under setting [1] was 0.1 µM [rising, full curve, poor fit].

With `COc1cc(/C=N/NC(=S)NCc2ccccc2)ccc1OCC#N`, the AC50 under setting [2] was 3.55 µM [rising, partial curve, poor fit].

Consider `Cc1cc(C(=O)CSc2nc3ccccc3o2)c(C)n1CC1CCCO1` (configuration not stated), for which the AC50 is 5.62 µM [rising, full curve] under setting [1] and 3.98 µM [rising, full curve] under setting [2].
